Measured values reported in US20230026232A1, “AHR INHIBITORS AND USES THEREOF” (Ikena Oncology, Inc., priority 2019, published 2023).
Some of these results come from one statement about several compounds together.

Experiment: Phase 1 dose-escalation study: interim cohort pharmacokinetics
Type: in vivo, human
Conditions: patients, daily oral dosing
Procedure: Serial blood samples are obtained to characterize the plasma PK of Compound A and its major active metabolites. The initial sampling strategy is based on the predicted human PK of this compound. If in the course of evaluating the PK, it is determined that an alternative sampling scheme would be more informative, then that alternative sampling scheme may be implemented if the total amount of blood and blood draws obtained for PK is not increased. Moreover, the total number of samples may be decreased at any time if the initial sampling scheme is considered unnecessarily intensive.
Interim cohort pharmacokinetics were assessed on parent (Compound A) and two active metabolites (Compound B and Compound C). […] Compound B metabolite ratio is increased on C2D1 in cohorts above 200 mg dosages. […] Without wishing to be bound or limited by theory, elimination rate limited kinetics likely contributing to the accumulation of Compound B through on-target inhibition of CYP1A1.

| SMILES | time by which steady state PK was achieved [days] |
| --- | --- |
| C=C(C)c1cnn2c(N[C@@H]3CCc4[nH]c5ccccc5c4C3)nc(-c3cncc(F)c3)nc12 [Compound C] | ≤ 8 |
| CC(C)(O)c1cnn2c(N[C@@H]3CCc4[nH]c5ccccc5c4C3)nc(-c3cncc(F)c3)nc12 [Compound B] | ≤ 8 |
| CC(C)c1cnn2c(N[C@@H]3CCc4[nH]c5ccccc5c4C3)nc(-c3cncc(F)c3)nc12 [Compound A, (R)—N-(2-(5-fluoropyridin-3-yl)-8-isopropylpyrazolo[1,5-a][1,3,5]triazin-4-yl)-2,3,4,9-tetrahydro-1H-carbazol-3-amine] | ≤ 8 |
